Source: the supplement of paper PMC8166895
Structures can show the parent of a compound that is named as a salt. Some of the results follow. Most values lie at the level of the controls, where differences are scatter.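 A single-replicate pilot screen of approved drugs and clinical or known-target compounds measured melting temperature via differential scanning fluorimetry. Top stabilizing hits raised the melting point by 2 °C or more; negative shifts indicate destabilization.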 Where a SMILES comes first, the peptide text is derived from it. [ ]: non-standard residue; d: D form. The star is where a group is joined. Benzoyl(4-tBu) = CC(C)(C)c1ccc(C(=O)*)cc1; Lys(Et2) = CCN(CC)CCCC[C@H](N)C(=O)O

The compounds below were run on SARS-CoV-2 main protease (Mpro, nsp5) (assay: thermal shift ΔTm of Mpro relative to plate average Tm; higher = stronger thermal stabilization of Mpro (binding)). Details: 10 µM; protein concentration 1 µM.

Compound | thermal shift ΔTm of Mpro
CCn1c(=O)c2c(nc(/C=C/c3ccc(OC)c(OC)c3)n2C)n(CC)c1=O [Istradefylline] | -0.0239 °C
CN([C@@H](Cc1ccc(OS(=O)(=O)c2cccc3cnccc23)cc1)C(=O)N1CCN(c2ccccc2)CC1)S(=O)(=O)c1cccc2cnccc12 | -0.466 °C
C[C@@H]1C/C=C/C=C/C=C/C=C/[C@H](O[C@@H]2O[C@H](C)[C@@H](O)[C@H](N)[C@@H]2O)C[C@@H]2O[C@](O)(C[C@@H](O)C[C@H]3O[C@@H]3/C=C/C(=O)O1)C[C@H](O)[C@H]2C(=O)O [Natamycin] | 0.646 °C
C[C@@H]1[C@@H](c2ccc(Cl)cc2)SC(=O)N1C(=O)NC1CCCCC1 [Hexythiazox] | 0.134 °C
CC(C(O)c1ccc(O)cc1)N1CCC(Cc2ccccc2)CC1 (configuration not stated) [Ifenprodil Tartrate] | -0.0745 °C
CONC(=O)Nc1ccc(-c2sc3c(c2CN(C)Cc2ccccc2)c(=O)n(-c2ccccc2)c(=O)n3Cc2c(F)cccc2F)cc1 [Sufugolix] | -0.153 °C
COC1=C[C@@H]2[C@@H]3Cc4ccc(OC)c(O)c4[C@]2(CCN3C)CC1=O [Sinomenine] | 0.0242 °C
CC(C)[C@H](N)C(=O)OCCOCn1cnc2c(=O)nc(N)[nH]c21 [Valaciclovir HCl] | 0.135 °C
COc1ccc(N(C(=O)Oc2c(C)cccc2C)c2ccnc(Nc3ccc(N4CCN(C)CC4)cc3)n2)c(OC)c1 | -0.236 °C
CC(C)N(CC[C@H](c1ccccc1)c1cc(CO)ccc1O)C(C)C | 0.0572 °C
CC[C@H](NC(=O)[C@H](C)NC)C(=O)N1C[C@@H](O)C[C@H]1Cc1c(-c2[nH]c3cc(F)ccc3c2C[C@@H]2C[C@H](O)CN2C(=O)[C@H](CC)NC(=O)[C@H](C)NC)[nH]c2cc(F)ccc12 [Birinapant] | -0.0171 °C
O=C(Nc1cnn2ccc(N3CCC[C@@H]3c3cc(F)ccc3F)nc12)N1CC[C@H](O)C1 [Larotrectinib sulfate] | -0.0319 °C
CN1CCN2c3ncccc3Cc3ccccc3C2C1 (configuration not stated) [Mirtazapine] | 0.0913 °C
CN(C(=O)CN(CCO)CC(=O)N(C)C(C)(C)Cc1ccccc1)C(C)(C)Cc1ccccc1 [Oxethazaine] | 0.109 °C
CC(C)(Oc1ccc(Cl)cc1)C(=O)OCCOC(=O)c1cccnc1 [Etofibrate] | -0.0781 °C
COC(=O)N/N=C/c1c[n+]([O-])c2ccccc2[n+]1[O-] [Carbadox] | 0.15 °C
COc1cc(NS(=O)(=O)c2ccc(N)cc2)ncn1 [Sulfamonomethoxine] | 0.183 °C
CC1(C)O[C@@H]2C[C@H]3[C@@H]4C[C@H](F)C5=CC(=O)C=C[C@]5(C)[C@@]4(F)[C@@H](O)C[C@]3(C)[C@]2(C(=O)CO)O1 [Fluocinolone Acetonide] | -0.0122 °C
CCc1nn(C)c(C(=O)NCc2ccc(Oc3ccc(C)cc3)cc2)c1Cl [Tolfenpyrad] | -0.0484 °C
C/C(=C\c1csc(C)n1)[C@@H]1C[C@@H]2O[C@@H]2CCC[C@H](C)[C@H](O)[C@@H](C)C(=O)C(C)(C)[C@@H](O)CC(=O)O1 [Epothilone A] | 0.304 °C
Cc1cc(C)nc(NS(=O)(=O)c2ccc(N)cc2)n1 [Sulfamethazine] | 0.0264 °C
Cc1cc(C)nc(NS(=O)(=O)c2ccc(N)cc2)n1 [Sulfamethazine sodium salt] | 0.177 °C
CC1(C)Cc2c(-c3ccccc3)c(-c3ccc(Cl)cc3)c(CC(=O)O)n2C1 [Licofelone] | 0.232 °C
CCOc1ccccc1N=Nc1c(C)[nH]n(-c2nc(-c3ccccc3)cs2)c1=O | 0.145 °C

Compound | thermal shift ΔTm of Mpro
CC(C)(C)c1cc(NC(=O)Nc2ccc(-c3cn4c(n3)sc3cc(OCCN5CCOCC5)ccc34)cc2)no1 [Quizartinib (AC220)] | 0.705 °C
CN1CCN(c2ccc(-c3cccc(CN4CCOCC4)c3)cc2NC(=O)c2c[nH]c(=O)cc2C(F)(F)F)CC1 | -0.0391 °C
CN(C)C(=O)/C(C#N)=C/c1ccc(-c2nc3cnc4[nH]ccc4c3n2C2CCCCC2)o1 | 0.0502 °C
O=C(/C=C/c1cccc(S(=O)(=O)Nc2ccccc2)c1)NO [Belinostat (PXD101)] | 0.222 °C
Cc1c(N)c(=O)n(-c2ccccc2)n1C [4-Aminoantipyrine] | 0.297 °C
O=C(N=c1c(Cl)cn(O)cc1Cl)c1ccc(OC(F)F)c(OCC2CC2)c1 [Roflumilast N-oxide] | -0.0769 °C
CCC(Sc1nnc2c3ccccc3n(CC)c2n1)C(=O)Nc1ccccc1OC (configuration not stated) | -0.00282 °C
O=C(O)c1ccc[n+]([O-])c1 [Oxiniacic Acid] | 0.184 °C
COc1cc2nccc(Oc3ccc(NC(=O)c4cn(C(C)C)c(=O)n(-c5ccc(F)cc5)c4=O)cc3F)c2cc1OC | 0.0693 °C
CCN(CC)CCCC[C@H](NC(=O)[C@H](CC(C)C)NC(=O)[C@H](C)NC(=O)[C@H](Cc1ccccc1)NC(=O)c1ccc(C(C)(C)C)cc1)C(=O)N[C@@H](CO)C(=O)OC ({Benzoyl(4-tBu)}-FAL[Lys(Et2)]S-OMe) | 0.0231 °C
CNC(=O)c1c(F)cccc1Nc1nc(Nc2cc3c(cc2OC)CCN3C(=O)CN(C)C)nc2[nH]ccc12 | -0.0672 °C
c1ccc(Cn2c(-c3ccc(OC[C@H](C4CCNCC4)n4c(-c5ccccc5)nc5ccccc54)cc3)nc3ccccc32)cc1 [Deltarasin] | 0.0301 °C
O=C(Nc1cnc(Cl)nc1)c1ccc(F)c(F)c1 | 0.0348 °C
CCN(CCCCOC(=O)c1ccc(OC)c(OC)c1)C(C)Cc1ccc(OC)cc1 (configuration not stated) [Mebeverine hydrochloride] | 0.259 °C
COc1cc(NC(=O)c2ccccn2)ccc1Cl | 0.085 °C
CCN(CC)C(=O)C1(c2ccccc2)CC1CN (configuration not stated) [Milnacipran HCl] | 0.047 °C
Cc1cc(C(C)(C)C)cc(C)c1CC1=NCCN1 [Xylometazoline HCl] | 0.189 °C
COC(=O)[C@H](CC(C)C)NC(=O)c1ccc(NC[C@@H](N)CS)cc1-c1cccc2ccccc12 | 0.223 °C
COc1ccc2c3n(c(=NC(=O)c4cccnc4)nc2c1OC)CCN3 | 0.195 °C
CC#CCn1c(N2CCC[C@@H](N)C2)nc2c1c(=O)n(Cc1nc(C)c3ccccc3n1)c(=O)n2C [Linagliptin] | -0.0664 °C
CCN(CC)CCOCCOC(=O)C1(c2ccccc2)CCCC1 [Pentoxyverine Citrate] | -0.118 °C
CC(=O)Nc1nc(-c2cccc(NS(=O)(=O)c3cccc4c(N(C)C)cccc34)c2)cs1 | -0.111 °C
Cc1cc(NC(=O)NCCN2CCC(O)(Cc3ccccc3)CC2)c2ccccc2n1 [Palosuran] | 0.031 °C
CN1[C@@H]2C[C@@H](OC(=O)[C@H](CO)c3ccccc3)C[C@H]1[C@@H]1O[C@@H]12 [Scopolamine HBr] | 0.257 °C

Compound | thermal shift ΔTm of Mpro
CCCc1ccc(OCC(=O)N(Cc2nc(-c3cccnc3)no2)C(C)C)cc1 | -0.235 °C
COc1cc(OC)c(NC(=O)Nc2cc(C)on2)cc1Cl | 0.0846 °C
CNC(=O)c1ccc(N2C(=S)N(c3ccc(C#N)c(C(F)(F)F)c3)C(=O)C2(C)C)cc1F [Enzalutamide (MDV3100)] | 0.259 °C
NC[C@@](O)(c1ccc(Cl)cc1)c1ccc(-c2cn[nH]c2)cc1 | -0.191 °C
O=c1c(O)c(-c2ccc(O)cc2)oc2cc(O)cc(O)c12 [Kaempferol] | -0.0335 °C
CC(C)NC(=O)C1CCC(n2c(NC(=O)c3ccc(F)cc3)nc3ccc(CN4CCC(C(C)(C)O)CC4)cc32)CC1 (configuration not stated) [Belizatinib] | -0.232 °C
N#C/C(=C(/N)Sc1ccc(N)cc1)c1ccccc1C(F)(F)F | 0.0677 °C
COc1cc2nc(N3CCN(C(=O)C4COc5ccccc5O4)CC3)nc(N)c2cc1OC (configuration not stated) [Doxazosin Mesylate] | 0.23 °C
CC(C)(C)NC(=O)[C@H]1CC[C@H]2[C@@H]3CC[C@H]4NC(=O)C=C[C@]4(C)[C@H]3CC[C@]12C [Finasteride] | 0.181 °C
Cc1ccc(C(=O)Cn2c3c(sc2=N)CCCC3)cc1 [Pifithrin-α (PFTα)] | 0.019 °C
C=CC[N+]1([C@H]2C[C@H]3[C@@H]4CC[C@H]5C[C@H](O)[C@@H](N6CCOCC6)C[C@]5(C)[C@H]4CC[C@]3(C)[C@H]2OC(C)=O)CCCC1 [Rocuronium Bromide] | 0.0872 °C
Cc1cccc(C)c1NC(=O)CN1CCCC1=O [Nefiracetam] | 0.232 °C
Cc1ccc(C(=O)N(CCCN)[C@@H](c2oc3cc(Cl)ccc3c(=O)c2Cc2ccccc2)C(C)C)cc1 | -0.302 °C
Nc1nc(N)c2nc(-c3ccccc3)c(N)nc2n1 [Triamterene] | 0.124 °C
C=C1CC[C@H](O)C/C1=C/C=C1\CCC[C@]2(C)[C@@H]([C@H](C)/C=C/[C@H](C)C(C)C)CC[C@@H]12 [Vitamin D2] | 0.28 °C
CCCCOc1ccc(C(=O)CCN2CCCCC2)cc1 [Dyclonine HCl] | 0.00206 °C
C=C1C(=O)O[C@H]2[C@H]1CC/C(C)=C/CC[C@@]1(C)O[C@@H]21 [(-)-Parthenolide] | -0.0435 °C
COc1ccc(CCC(=O)Nc2nc3ccc(Cl)cc3s2)cc1OC | -0.0412 °C
COc1ccc(-c2cc3nccn3c(Nc3ncccc3C(N)=O)n2)cc1OC | -0.0532 °C
O=[N+]([O-])c1cn2c(n1)OC[C@@H](OCc1ccc(OC(F)(F)F)cc1)C2 | 0.0521 °C
Cn1nnc2c(C(N)=O)ncn2c1=O [Temozolomide] | 0.109 °C
COc1ccc(CCC(=O)c2c(O)cc(O[C@@H]3O[C@H](CO)[C@@H](O)[C@H](O)[C@H]3O[C@@H]3O[C@@H](C)[C@H](O)[C@@H](O)[C@H]3O)cc2O)cc1O [Neohesperidin dihydrochalcone (Nhdc)] | -0.252 °C
C[C@]12CC[C@H](O)CC1=CC[C@@H]1[C@@H]2CC[C@]2(C)C(c3cccnc3)=CC[C@@H]12 [Abiraterone] | -0.0511 °C
C[C@]12CCC(=O)C=C1C=C[C@@H]1[C@@H]2CC[C@@]2(C)[C@H]1CC[C@@]2(O)CCC(=O)O [Potassium canrenoate] | 0.0285 °C

Individual results from the results shown.
thermal shift ΔTm of Mpro with O=[N+]([O-])c1cn2c(n1)OC[C@@H](OCc1ccc(OC(F)(F)F)cc1)C2 is entered as 0.0521 °C
thermal shift ΔTm of Mpro with NC[C@@](O)(c1ccc(Cl)cc1)c1ccc(-c2cn[nH]c2)cc1 is entered as -0.191 °C
thermal shift ΔTm of Mpro with N#C/C(=C(/N)Sc1ccc(N)cc1)c1ccccc1C(F)(F)F is entered as 0.0677 °C
thermal shift ΔTm of Mpro with Cc1ccc(C(=O)Cn2c3c(sc2=N)CCCC3)cc1 [Pifithrin-α (PFTα)] is entered as 0.019 °C
thermal shift ΔTm of Mpro with COc1ccc(-c2cc3nccn3c(Nc3ncccc3C(N)=O)n2)cc1OC is entered as -0.0532 °C
thermal shift ΔTm of Mpro with COc1ccc(CCC(=O)Nc2nc3ccc(Cl)cc3s2)cc1OC is entered as -0.0412 °C
